Laboratory results as given in article PMC11291904.

By UniProt entry, the sequences of proteins in these tests, tags left out. Where a name states a change or a piece, a line headed by the entry shows the natural chain unless it says otherwise.
UniProt P61960: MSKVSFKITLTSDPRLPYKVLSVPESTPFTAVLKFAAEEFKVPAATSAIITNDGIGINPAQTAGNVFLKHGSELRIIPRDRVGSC
UniProt P52732: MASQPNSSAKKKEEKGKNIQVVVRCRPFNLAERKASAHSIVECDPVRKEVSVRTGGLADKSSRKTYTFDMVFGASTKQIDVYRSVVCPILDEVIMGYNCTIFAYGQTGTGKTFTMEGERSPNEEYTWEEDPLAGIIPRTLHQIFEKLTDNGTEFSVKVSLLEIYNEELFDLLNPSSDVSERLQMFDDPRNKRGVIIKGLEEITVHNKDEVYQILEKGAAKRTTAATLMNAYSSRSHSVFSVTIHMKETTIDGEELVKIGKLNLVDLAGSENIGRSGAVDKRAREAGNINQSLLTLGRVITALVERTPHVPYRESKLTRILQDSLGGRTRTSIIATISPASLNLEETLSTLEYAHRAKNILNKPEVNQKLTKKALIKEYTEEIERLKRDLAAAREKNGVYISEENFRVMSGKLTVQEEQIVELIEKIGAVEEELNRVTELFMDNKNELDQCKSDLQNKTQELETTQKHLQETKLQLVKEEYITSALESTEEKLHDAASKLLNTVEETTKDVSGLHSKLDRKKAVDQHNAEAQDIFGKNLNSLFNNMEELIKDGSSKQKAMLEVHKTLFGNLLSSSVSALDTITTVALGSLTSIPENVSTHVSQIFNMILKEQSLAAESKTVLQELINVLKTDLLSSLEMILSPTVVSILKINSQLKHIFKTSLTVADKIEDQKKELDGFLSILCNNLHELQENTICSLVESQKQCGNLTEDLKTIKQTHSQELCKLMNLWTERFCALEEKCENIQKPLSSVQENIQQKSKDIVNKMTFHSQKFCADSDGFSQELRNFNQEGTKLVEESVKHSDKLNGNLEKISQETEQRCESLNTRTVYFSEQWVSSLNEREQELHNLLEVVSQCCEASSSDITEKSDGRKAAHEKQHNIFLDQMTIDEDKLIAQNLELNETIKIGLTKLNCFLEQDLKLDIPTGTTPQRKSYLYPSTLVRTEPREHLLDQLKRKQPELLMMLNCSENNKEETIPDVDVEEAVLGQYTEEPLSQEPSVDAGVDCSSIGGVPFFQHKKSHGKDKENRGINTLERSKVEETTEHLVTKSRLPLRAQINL

Biological target: Flag-tagged mature UFM1 (UFM1-ΔC2) (UniProt P61960)
Experiment: affinity purification with mass spectrometry; Flag-UFM1-ΔC2 expressed for 36 h in UFSP2 knockout HEK293T cells; NP-40 lysis buffer (50 mM Tris pH 7.4, 150 mM NaCl, 1% NP-40); anti-FLAG M2 beads overnight at 4 °C; SDS-PAGE and mass spectrometry; Flag-UFM1-ΔC3 as negative control

binding: binds
Substance: Kinesin-5 (Eg5), endogenous (from UniProt P52732 1-1056)

Results are given in words; binding and its absence hold for the method and conditions named. Binding seen in cells or lysates may run through a third protein. These calls come from enrichment with a bait or labelling near it, and not all partners need be listed.
